{"sequences": {"note": "Sequences of proteins named here, by UniProt entry; tags and fusion partners are left off. A change or cut given only in a name is not applied to a line headed by its entry.", "UniProt P06756": "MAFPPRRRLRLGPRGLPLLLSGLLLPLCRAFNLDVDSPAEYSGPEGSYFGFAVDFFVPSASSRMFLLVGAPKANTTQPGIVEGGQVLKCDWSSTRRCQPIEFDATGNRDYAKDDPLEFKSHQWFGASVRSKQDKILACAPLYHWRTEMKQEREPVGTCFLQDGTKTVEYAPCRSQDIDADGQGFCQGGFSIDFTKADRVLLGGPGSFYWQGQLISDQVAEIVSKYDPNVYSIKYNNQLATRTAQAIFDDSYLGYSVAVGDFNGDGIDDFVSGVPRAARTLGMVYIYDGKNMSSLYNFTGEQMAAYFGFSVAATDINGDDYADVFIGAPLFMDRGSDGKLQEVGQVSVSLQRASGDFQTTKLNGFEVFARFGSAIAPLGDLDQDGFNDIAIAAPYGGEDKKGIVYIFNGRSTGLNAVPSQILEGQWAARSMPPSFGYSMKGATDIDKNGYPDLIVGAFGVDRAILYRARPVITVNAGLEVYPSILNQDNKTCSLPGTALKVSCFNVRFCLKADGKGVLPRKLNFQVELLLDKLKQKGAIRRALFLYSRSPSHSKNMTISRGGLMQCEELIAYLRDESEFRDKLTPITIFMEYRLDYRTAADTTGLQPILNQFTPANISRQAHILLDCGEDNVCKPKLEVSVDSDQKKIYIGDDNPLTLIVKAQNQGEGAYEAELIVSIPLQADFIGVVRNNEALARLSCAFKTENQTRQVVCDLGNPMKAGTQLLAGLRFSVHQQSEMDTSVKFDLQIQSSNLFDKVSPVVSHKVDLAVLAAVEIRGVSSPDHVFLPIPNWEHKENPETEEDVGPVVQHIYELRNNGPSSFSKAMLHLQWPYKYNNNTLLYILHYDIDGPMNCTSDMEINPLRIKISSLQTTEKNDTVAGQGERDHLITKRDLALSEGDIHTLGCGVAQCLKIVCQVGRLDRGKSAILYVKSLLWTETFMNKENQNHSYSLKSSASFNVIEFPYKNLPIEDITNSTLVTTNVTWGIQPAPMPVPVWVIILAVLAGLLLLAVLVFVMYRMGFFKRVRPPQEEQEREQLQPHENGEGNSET"}, "source": "patent US20190211057A1", "binders": {"B1": {"name": "RGD4C-yCD (protein)", "chain": "MACDCRGDCFCVTGGMASKWDQKGMDIAYEEAALGYKEGGVPIGGCLINNKDGSVLGRGHNMRFQKGSATLHGEISTLENCGRLEGKVYKDTTLYTTLSPCDMCTGAIIMYGIPRCVVGENVNFKSKGEKYLQTRGHEVVVVDDERCKKIMKQFIDERPQDWFEDIGELEHHHHHH"}, "B2": {"name": "RGD4C-yCD/UPRT (protein)", "chain": "MACDCRGDCFCVTGGMASKWDQKGMDIAYEEAALGYKEGGVPIGGCLINNKDGSVLGRGHNMRFQKGSATLHGEISTLENCGRLEGKVYKDTTLYTTLSPCDMCTGAIIMYGIPRCVVGENVNFKSKGEKYLQTRGHEVVVVDDERCKKIMKQFIDERPQDWFEDIGEASEPFKNVYLLPQTNQLLGLYTIIRNKNTTRPDFIFYSDRIIRLLVEEGLNHLPVQKQIVETDTNENFEGVSFMGKICGVSIVRAGESMEQGLRDCCRSVRIGKILIQRDEETALPKLFYEKLPEDISERYVFLLDPMLATGGSAIMATEVLIKRGVKPERIYFLNLICSKEGIEKYHAAFPEVRIVTGALDRGLDENKYLVPGLGDFGDRYYCVLEHHHHHH"}, "B3": {"name": "DTPA-RGD4C-yCD (protein)", "chain": "B1 chain", "modifications": "DTPA on primary amines, 0.94 DTPA per protein on average"}, "B4": {"name": "In-DTPA-RGD4C-yCD (protein)", "chain": "B1 chain", "modifications": "DTPA on primary amines, loaded with the stable isotope of indium"}}, "note": "No constants are given. Whether binding was seen depends on the method and setting. Some results given as binding are weak or reduced against the parent protein; the word gives no strength.", "data": [{"biological_target": "integrin αvβ3 receptor (UniProt P06756)", "assay": "ELISA on integrin αvβ3 receptor", "values": [{"binder": "B1", "binding": "binds"}, {"binder": "B2", "binding": "binds"}, {"binder": "B3", "binding": "binds"}, {"binder": "B4", "binding": "binds"}]}]}
